Data on 61 molecules can be found in PubChem BioAssay AID2685 (National Center for Advancing Translational Sciences (NCATS), 2010).

In general, AC50 refers to the concentration at which the activity in the assay is half-maximal. High values mean activity only at high concentration, low ones activity at low concentration.

A short description of this assay: qHTS Assay for Lipid Storage Modulators in Drosophila S3 Cells.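 As to cell number change: cells counted by Cell Tracker Red CMTPX staining in the red channel.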 The settings on record: BODIPY lipid droplet fluorescence, 18-24 h; for cell number change: measured here: cell count max response, cells fed with added oleic acid. The method in brief:
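Laser-scanning cytometry quantifies lipid droplet accumulation (500–530 nm total intensity; droplet/cell object ratio) in oleic acid-fed (400 uM added) Drosophila S3 cells treated with a concentration series. 20 uM Triacsin C defined 100% inhibition.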
Background: qHTS replaces the single test concentration by a dilution series.

Setting [1] is: measured here: cell number channel AC50, cells fed with added oleic acid.
The mark [2] stands for this setting: measured here: lipid fluorescence (Fed channel) AC50, cells fed with added oleic acid.

The list shows a part of the results. These are further read-outs of the screen, such as a control signal, another cell line or another target. No call is given for them. The list favours compounds with an active or inconclusive main result. Words in brackets tell the shape of the fitted curve; partial curves, single points and poor fits give uncertain potencies.

On to `c1ccc2cc(Sc3ncnc4c3oc3ccccc34)ccc2c1`, for which the cell number change is -37.8%. The AC50 under setting [1] is 14.6 µM [falling, single point]. Also, under setting [2], the AC50 was 20.6 µM [falling, single point].

`COc1ccc(OC)c(/C=N/NC(=O)c2cc3c(OC)cc(OC)cc3[nH]2)c1`: the cell number change was -25.5%. Moreover, under setting [2], the concentration at half-maximal activity (AC50) is 23.1 µM [falling, partial curve, poor fit].

Take `O=C(COc1cccnc1[N+](=O)[O-])c1c[nH]c2ccccc12`: the cell number change was -54.7%. Further, the AC50 under setting [1] was 29.1 µM [falling, single point].

For the molecule `CCOC(=O)C1=NNC(C(=O)c2ccc(OC)cc2)C1c1ccccc1` (centres undefined), the cell number change turned out to be 61.1%. Moreover, under setting [1], the AC50 is 0.326 µM [rising, full curve]. Under setting [2], the AC50 was 3.66 µM [rising, full curve].

`O=C1CC(Nc2ccc3ccccc3c2)C(=O)N1Cc1ccccc1` (centres undefined): the cell number change was 48.5%. In addition, the AC50 under setting [1] is 3.66 µM [rising, partial curve]. Besides, the half-maximal activity concentration (AC50) under setting [2] is 2.59 µM [rising, single point].

`CCOc1cc(/C=N/n2cnnc2)ccc1OC(=O)c1cccc([N+](=O)[O-])c1`: the cell number change is -15.5%. Moreover, the half-maximal activity concentration (AC50) under setting [2] was 8.2 µM [falling, partial curve].

For the molecule `COC(=O)CCN(C(C)=O)c1ccc(N)cc1`, the cell number change is -14.8%. Besides, under setting [1], the AC50 is 6.51 µM [falling, single point]. Under setting [2], the AC50 was 29.1 µM [falling, single point].

For `Cc1nc(Nc2nc(CSc3nc4ccccc4[nH]3)cc(=O)[nH]2)nc2ccccc12`, the cell number change was -40.9%. Also, the concentration at half-maximal activity (AC50) under setting [1] was 0.164 µM [falling, full curve, poor fit]. Moreover, under setting [2], the AC50 is 16.4 µM [falling, single point].

With `COc1ccc(-c2nc(SC(CC(=O)NCCO)c3cccs3)n[nH]2)cc1` (centres undefined), under setting [2], the half-maximal activity concentration (AC50) was 6.51 µM [rising, single point].

Consider `COc1ccccc1COC(=O)C(NC(=O)c1ccc(C)cc1)C(C)C` (centres undefined), for which the cell number change was -19%.

Consider `Cc1ccc(N2C(=O)[C@@H]3[C@H](C2=O)[C@H]2C=C(C(=O)c4ccccc4)C=CN2[C@@H]3C(=O)c2ccc(Cl)cc2)cc1`, for which the cell number change came out at 4.24%. Further, under setting [2], the half-maximal activity concentration (AC50) is 7.31 µM [falling, single point].

For the molecule `O=C(Nc1cccc(F)c1)Nc1cccc(Cl)c1`, the cell number change was -28.1%. The AC50 under setting [2] was 29.1 µM [falling, single point].

`COc1cccc(CN(CC(=O)NCC2CCCO2)C(=O)CCC(=O)Nc2cc(C)on2)c1` (centres undefined): the cell number change was -8.37%.

With `C/C(=N\N1CCN(c2ccccc2)CC1)c1ccc(O)cc1`, the cell number change came out at 11.1%.

`O=C(CN1CCCC1)Nc1ccc([N+](=O)[O-])cc1`: the cell number change amounted to 96.3%. Also, the AC50 under setting [1] is 23.1 µM [rising, single point].

As to `Cc1ccccc1C(=O)Nc1ccnn1C1CCN(Cc2cccnc2)CC1`, the cell number change is -0.645%. Besides, the AC50 under setting [2] was 25.1 µM [rising, partial curve, poor fit].

As for `CC(c1ccccc1)N1C(=O)/C(=C/c2ccncc2)SC1=S` (centres undefined), the cell number change was -53%. For the same molecule, the AC50 under setting [1] is 29.1 µM [falling, single point]. For the same molecule, under setting [2], the AC50 is 29.1 µM [falling, single point].

Turning to `CC(C)Cn1c(N)c(C(=O)CSc2ncccn2)c(=O)n(C)c1=O`, under setting [1], the AC50 is 2.31 µM [rising, partial curve].

As to `O=C(O)CCc1ccc(-c2cccs2)n1NC(=O)c1ccccc1Br`, the cell number change is -8.18%. Further, the AC50 under setting [1] was 0.13 µM [falling, full curve]. Further, the AC50 under setting [2] was 23.1 µM [falling, partial curve, poor fit].

Consider `Nc1nnc(SCC(=O)OCC(=O)NC2CCCCC2)s1`, for which the cell number change was -54.2%. In addition, the AC50 under setting [1] was 16.4 µM [falling, partial curve, poor fit]. In addition, the AC50 under setting [2] is 14.6 µM [falling, partial curve].

With `CC(=O)c1cccc(NC(=O)N2CCCC2C(=O)NCc2ccc(C)cc2)c1` (centres undefined), the half-maximal activity concentration (AC50) under setting [2] is 6.51 µM [rising, single point].

Consider `CCc1ccc(NC(=S)N2CCC(NC(=O)c3ccccc3)CC2)cc1`, for which the cell number change turned out to be 20.5%. Moreover, the AC50 under setting [2] is 29.1 µM [rising, single point].

In the case of `Cc1cccn2c(=O)c(C=O)c(Nc3ccccc3)nc12`, the cell number change was 5.98%. Under setting [2], the AC50 is 0.651 µM [falling, single point].

For the molecule `Cc1ccc(C(C(=O)Nc2ccc3c(c2)OCO3)N(C)C(=O)Cc2c[nH]c3ccccc23)cc1` (centres undefined), the cell number change was 15.2%. Moreover, the half-maximal activity concentration (AC50) under setting [2] was 2.59 µM [rising, partial curve].

Turning to `CC(=O)c1cccc(CN2CCN(C3CCCC3)C(CCO)C2)c1` (centres undefined), the cell number change was -5.36%. Under setting [2], the concentration at half-maximal activity (AC50) is 3.26 µM [falling, single point].

For `Cc1ccc(NC(=O)C(=O)NCC2OCCc3ccccc32)cc1` (centres undefined), the cell number change is 8.19%. For the same molecule, the half-maximal activity concentration (AC50) under setting [1] is 3.26 µM [rising, single point].

With `O=C(Nc1cc(Cl)ccc1Cl)C1CC(=O)N(c2ccc(Br)cc2)C1` (centres undefined), the cell number change was -20%. The concentration at half-maximal activity (AC50) under setting [1] is 0.13 µM [falling, full curve, poor fit].

Regarding `Cc1ccc(CNC(=O)c2cccnc2Cl)cc1`, the cell number change is -23.6%.

`O=c1c2ccccc2oc2nc(-c3cccs3)n(CCc3ccccc3)c(=O)c12`: the cell number change was determined as 131%. The AC50 under setting [1] was 16.4 µM [rising, partial curve]. Moreover, under setting [2], the concentration at half-maximal activity (AC50) was 10.3 µM [rising, partial curve, poor fit].

With `NC(=O)c1ccc(NC(=O)CS(=O)(=O)c2cn(CC(=O)N3CCCC3)c3ccccc23)cc1`, the concentration at half-maximal activity (AC50) under setting [2] is 7.31 µM [rising, partial curve].

As for `Cc1sc2c(c1C)C(=O)NC(c1cccc(O)c1)N2` (centres undefined), the cell number change was 15.1%. The half-maximal activity concentration (AC50) under setting [2] is 0.103 µM [falling, full curve, poor fit].

For the molecule `C/C(=N\O)c1noc(C)c1C(=O)Nc1nccs1`, the cell number change is -6.85%. The AC50 under setting [2] is 16.4 µM [falling, single point].

Take `COC(=O)C(C)Oc1ccc(=O)[nH]n1` (centres undefined): the cell number change was -0.666%.

Consider `N#Cc1c(NC2CCCCC2)nc(-c2ccco2)c2c1CCCC2`, for which the AC50 is 0.13 µM [falling, full curve, poor fit] under setting [1] and 3.26 µM [falling, partial curve] under setting [2].

In the case of `O=C1N/C(=C\c2nc3ccccc3s2)c2ccccc21`, the cell number change is 49.3%. The AC50 under setting [1] is 29.1 µM [rising, single point]. Moreover, the AC50 under setting [2] was 0.461 µM [rising, partial curve].

On to `CCN(CC)CCOc1nc(C)nc2c1oc1ccccc12`, for which the cell number change came to 4.99%. In addition, the AC50 under setting [2] was 1.3 µM [falling, full curve].

`CC(=O)c1cn(C)c(=O)[nH]c1=O`: the cell number change was 17.4%.

For `CC(C)CC(=O)Nc1nc(=S)ss1`, the cell number change was -21.2%. Under setting [2], the AC50 is 0.651 µM [falling, full curve, poor fit].

For the molecule `Oc1ccccc1N=N/C(=N/Nc1ccccc1O)c1ccccc1`, the cell number change amounted to 22.4%. The AC50 under setting [2] is 0.651 µM [rising, full curve, poor fit].

In the case of `O=C(CNS(=O)(=O)c1ccc(F)c(Cl)c1)NCCc1ccccc1`, the cell number change worked out at 16.8%. For the same molecule, the AC50 under setting [1] was 0.461 µM [rising, full curve]. Moreover, the AC50 under setting [2] is 1.84 µM [rising, partial curve].

As for `CC(C)C[C@@H]1NC(=O)N(CCCn2ccnc2)C1=O`, the cell number change came out at 8.33%. Further, the half-maximal activity concentration (AC50) under setting [2] is 10.3 µM [rising, partial curve].

With `COc1ccc(OC)c(CCNC(=O)Cn2nc(C)c3c(C)n(-c4ccc(C)cc4)nc3c2=O)c1`, the cell number change was determined as 1.15%. Further, the AC50 under setting [2] is 29.1 µM [rising, single point].

For `Oc1ccc(Cl)cc1N=Nc1ccccc1`, the cell number change was -19.2%. Besides, the AC50 under setting [2] was 29.1 µM [falling, single point].

Regarding `COC(=O)N1CC(c2ccccc2)CC1=O` (centres undefined), the cell number change was -7.05%. Moreover, the AC50 under setting [1] was 1.16 µM [falling, full curve, poor fit].

Regarding `O=C(COC(=O)Cc1ccccc1F)Nc1ccc2[nH]c(=O)[nH]c2c1`, the cell number change is 0.724%. Also, the AC50 under setting [2] is 20.6 µM [falling, single point].

Turning to `Cc1cnc(=O)[nH]c1SCC(=O)c1ccc(F)cc1`, the cell number change is -20.3%.

As to `O=C(NC1(Cc2ccc(O)cc2)CCCCC1)c1ccccc1`, the AC50 under setting [2] is 7.31 µM [falling, partial curve].

In the case of `COc1ccc(C(C#N)c2nc3ccccc3nc2Cl)cc1` (centres undefined), the cell number change is 66.9%. Under setting [2], the half-maximal activity concentration (AC50) was 0.58 µM [falling, single point].

Take `Cc1cc(C)cc(OCC(=O)Nc2ccccc2N2CCCCC2)c1`: the cell number change turned out to be 33.7%. In addition, under setting [1], the AC50 is 1.84 µM [rising, full curve, poor fit]. Also, under setting [2], the half-maximal activity concentration (AC50) is 0.82 µM [rising, single point].

As for `C=CCC(Nc1ccco1)c1ccccc1` (centres undefined), the cell number change was -31.6%. Also, the half-maximal activity concentration (AC50) under setting [1] was 32.6 µM [falling, single point].

Consider `O=C(CSc1nnc(-c2cccnc2)n1Cc1ccco1)Nc1nc(-c2ccc(F)cc2)cs1`, for which the cell number change was -1.03%.

With `CC1CN(C(=O)C2CCCCC2)C(C)CN1C(=O)C1CCCCC1` (centres undefined), the cell number change amounted to 1.37%. For the same molecule, the half-maximal activity concentration (AC50) under setting [2] was 6.51 µM [rising, single point].

For the molecule `COc1cc(C2C3C(=O)N(Cc4ccccc4)C(=O)C3ON2c2ccccc2)cc(OC)c1OC` (centres undefined), the cell number change was -19.1%. Also, the half-maximal activity concentration (AC50) under setting [2] is 0.116 µM [rising, full curve, poor fit].

In the case of `CCOc1cc(C2/C(=C(/O)c3ccc(S(=O)(=O)N4CCCCC4)cc3)C(=O)C(=O)N2CCOC)ccc1O` (centres undefined), the cell number change is 11.6%.

Regarding `COc1ccc(-c2nn(CCC#N)cc2/C=N/O)cc1OC`, the cell number change was 43.7%. Besides, the AC50 under setting [1] is 7.31 µM [rising, partial curve]. Under setting [2], the AC50 is 6.51 µM [falling, single point].

As for `COc1ccc(NS(=O)(=O)c2cccc(C(=O)NNC(=O)c3cccn3C)c2)cc1`, under setting [2], the AC50 was 23.1 µM [rising, single point].

`Cc1ccc(N(CC(=O)N2CCN(C3CCCCC3)CC2)S(=O)(=O)c2cccnc2)cc1`: the cell number change worked out at 10.2%.

With `Nc1nonc1-n1nnc(C(=O)N/N=C/c2ccco2)c1CSc1ccccc1`, the cell number change stood at 96%. In addition, the AC50 under setting [1] was 14.6 µM [rising, partial curve, poor fit].

`COc1ccc(-c2nnc3sc(CN4C(=O)c5ccccc5C4=O)nn23)cc1`: the cell number change is 2.09%.

On to `Cc1ccc(Cl)cc1NC(=O)CCC(=O)Nc1cc(Cl)ccc1C`, for which the cell number change is 0.478%. The AC50 under setting [2] is 0.00517 µM [rising, full curve].

Regarding `O=C(C1=C(O)C(=O)N(CCCN2CCOCC2)C1c1ccccn1)c1cccs1` (centres undefined), the cell number change came to 41%. For the same molecule, the half-maximal activity concentration (AC50) under setting [1] is 29.1 µM [rising, single point]. The AC50 under setting [2] was 25.9 µM [rising, partial curve].
